The record followed here is article PMC11384121.

By UniProt entry, the sequences of proteins in these tests, tags left out.
UniProt A0ABM1G300, entry or part of it: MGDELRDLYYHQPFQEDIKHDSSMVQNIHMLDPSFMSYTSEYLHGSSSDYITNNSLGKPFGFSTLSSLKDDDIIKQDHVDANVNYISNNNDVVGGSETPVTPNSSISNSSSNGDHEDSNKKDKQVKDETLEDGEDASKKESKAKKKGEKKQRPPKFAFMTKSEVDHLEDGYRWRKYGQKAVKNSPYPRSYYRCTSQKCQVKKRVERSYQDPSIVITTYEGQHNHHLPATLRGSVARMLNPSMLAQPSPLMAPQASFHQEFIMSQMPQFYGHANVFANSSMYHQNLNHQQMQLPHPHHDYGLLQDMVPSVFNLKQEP
UniProt P08515, whole entry: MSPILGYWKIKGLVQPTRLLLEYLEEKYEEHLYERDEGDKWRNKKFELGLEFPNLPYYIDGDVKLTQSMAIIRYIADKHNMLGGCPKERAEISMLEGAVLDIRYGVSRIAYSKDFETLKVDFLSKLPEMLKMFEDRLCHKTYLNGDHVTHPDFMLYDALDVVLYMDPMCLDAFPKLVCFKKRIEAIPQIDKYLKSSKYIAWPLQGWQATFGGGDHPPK

The exact form of at least one protein or probe is not confirmed. No signal at the amounts used counts as a negative.

The target of series [1] is WRKY-B-GST (Solanum lycopersicum) (UniProt A0ABM1G300). Nature of the series: EMSA. The conditions noted are these: Beyotime Chemiluminescent EMSA Kit, manufacturer's instructions, pH and temperature not stated, recombinant protein, protein details: GST (pGEX4T), label: biotin. For orientation: In EMSA bound probe runs differently from free probe, usually more slowly.
The target of another series is GST (UniProt P08515). In words: EMSA. The conditions noted are these: GST alone; Beyotime Chemiluminescent EMSA Kit, manufacturer's instructions; pH and temperature not stated; recombinant protein; label: biotin.

As to “AAGTAAGTTAAAAATAGGTCTGTCCAAAACTGAAAGTAATTATAAATATA (double strand) [mProbe-BL]”, the binding result in series [1] was “no binding”.

“AAGTAAGTTAAAAATAGGTCTGTCCTTTTGACTTTGTAATTATAAATATA (double strand) [Probe-BL]”: the binding result in series [1] is recorded as “binds”.

Turning to “GTTCTGACCGAAAGTTAAAATGAAAAGTCTAAATTACTATTTATAATATC (double strand) [Probe-PIN4]”, the binding result with GST is listed as “no binding”; in series [1] (inhibited by competitor probe), “binds”.
